Laboratory results reported in the supplement of paper PMC6078165.
Values are relative to the signal before dosing, not to a vehicle control; the signal also falls without drug.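 Fibroblast labels name human fibroblasts: mostly primary ones from tissues such as uterus (C12385, HUF), lung (H6013), bone (Hs27A), adrenal (HADF) and skin (WS1), plus mammary HMF and breast cancer-associated Hs343T. The cancer cells are basal-like or mesenchymal-like triple-negative breast cancer lines. The paper calls a changed response a hit when it shifts by more than 3x the replicate standard deviation. The tissue of the other fibroblasts is not given here.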

Tested on: MDAMB436
Assay: relative JC-1 red fluorescence (viability) vs pre-drug, coculture with fibroblast (fraction); higher = more viable cancer cells
Procedure: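 JC-1 labelled TNBC cells cocultured 1:1 (1,500 cells each) with CellTrace Violet stained primary or stromal fibroblasts in 384-well plates in FluoroBrite medium, treated with one of 42 anticancer drugs at 0.1, 1, 10 or 100 uM. JC-1 red fluorescence (mitochondrial integrity in cancer cells only) was read by plate reader every 8 h for 72 h. Values are normalised to each well's pre-drug value. The stock of one drug was tenfold lower, so its dose labels may be too high.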

CC(=O)O[C@@]12CO[C@@H]1C[C@H](O)[C@@]1(C)C(=O)[C@H](O)C3=C(C)[C@@H](OC(=O)[C@H](O)[C@@H](NC(=O)OC(C)(C)C)c4ccccc4)C[C@@](O)([C@@H](OC(=O)c4ccccc4)[C@H]21)C3(C)C [Docetaxel]
relative JC-1 red fluorescence
Settings	8 h	16 h	24 h	32 h	40 h	48 h	56 h	64 h	72 h
10 µM, coculture fibroblast: C12385	0.782	0.75	0.741	0.674	0.646	0.627	0.606	0.592	0.595
10 µM, coculture fibroblast: H6013	0.8399	0.817	0.803	0.798	0.788	0.819	0.793	0.795	0.775
10 µM, coculture fibroblast: H6019	0.7691	0.75	0.752	0.704	0.689	0.691	0.677	0.674	0.667
10 µM, coculture fibroblast: H6076	0.685	0.636	0.628	0.59	0.604	0.59	0.624	0.632	0.636
10 µM, coculture fibroblast: H6231	0.71	0.613	0.652	0.5748	0.572	0.551	0.548	0.539	0.5341
10 µM, coculture fibroblast: HADF	0.8059	0.7859	0.765	0.745	0.7485	0.776	0.729	0.723	0.691
10 µM, coculture fibroblast: HCFa	0.8079	0.762	0.725	0.69	0.66	0.673	0.62	0.617	0.571
10 µM, coculture fibroblast: HCPF	0.702	0.664	0.664	0.598	0.588	0.557	0.55	0.541	0.539
10 µM, coculture fibroblast: HHSteC	0.823	0.808	0.779	0.758	0.746	0.761	0.707	0.701	0.665
10 µM, coculture fibroblast: HMF	0.718	0.668	0.629	0.582	0.569	0.535	0.543	0.52344	0.5252
10 µM, coculture fibroblast: HPFa	0.908	0.885	0.867	0.819	0.811	0.81	0.751	0.731	0.684
10 µM, coculture fibroblast: HUF	0.8335	0.7787	0.762	0.688	0.626	0.605	0.588	0.574	0.573
10 µM, coculture fibroblast: Hs5	0.738	0.687	0.669	0.602	0.587	0.547	0.546	0.521	0.521
10 µM, coculture fibroblast: Hs27A	0.859	0.827	0.834	0.838	0.841	0.927	0.857	0.868	0.809
10 µM, coculture fibroblast: Hs343T	0.754	0.7	0.665	0.61	0.571	0.534	0.517	0.506	0.504
10 µM, coculture fibroblast: WS1	0.78	0.744	0.723	0.645	0.609	0.579	0.559	0.543	0.532
100 µM, coculture fibroblast: C12385	0.8496	0.784	0.7443	0.669	0.611	0.581	0.548	0.523	0.512
100 µM, coculture fibroblast: H6013	0.8839	0.8006	0.773	0.784	0.7672	0.803	0.784	0.787	0.774
100 µM, coculture fibroblast: H6019	0.804	0.746	0.761	0.712	0.71	0.713	0.696	0.692	0.685
100 µM, coculture fibroblast: H6076	0.7	0.586	0.563	0.543	0.547	0.544	0.5731	0.5866	0.5963
100 µM, coculture fibroblast: H6231	0.717	0.6248	0.545	0.522	0.502	0.485	0.484	0.467	0.466
100 µM, coculture fibroblast: HADF	0.8615	0.7914	0.765	0.754	0.734	0.754	0.697	0.691	0.657
100 µM, coculture fibroblast: HCFa	0.874	0.835	0.809	0.794	0.764	0.784	0.732	0.739	0.68841
100 µM, coculture fibroblast: HCPF	0.735	0.658	0.571	0.525	0.519	0.494	0.4861	0.472	0.4622
100 µM, coculture fibroblast: HHSteC	0.853	0.828	0.815	0.799	0.797	0.808	0.753	0.758	0.725
100 µM, coculture fibroblast: HMF	0.835	0.711	0.626	0.601	0.601	0.58	0.589	0.577	0.573
100 µM, coculture fibroblast: HPFa	0.89229	0.848	0.7975	0.758	0.734	0.749	0.69	0.68	0.638
100 µM, coculture fibroblast: HUF	0.8776	0.793	0.778	0.716	0.661	0.634	0.615	0.608	0.608
100 µM, coculture fibroblast: Hs5	0.686	0.612	0.574	0.529	0.526	0.497	0.514	0.489	0.485
100 µM, coculture fibroblast: Hs27A	0.894	0.874	0.857	0.868	0.87	0.77	0.736	0.713	0.809
100 µM, coculture fibroblast: Hs343T	0.685	0.5482	0.544	0.514	0.508	0.485	0.494	0.491	0.5036
100 µM, coculture fibroblast: WS1	0.853	0.776	0.7431	0.666	0.60909	0.5826	0.544	0.511	0.494
